For two substances, binding results are on record in article PMC4745779.

Protein sequences, listed by entry. Tags and fused reporters are not part of them.
UniProt Q07812: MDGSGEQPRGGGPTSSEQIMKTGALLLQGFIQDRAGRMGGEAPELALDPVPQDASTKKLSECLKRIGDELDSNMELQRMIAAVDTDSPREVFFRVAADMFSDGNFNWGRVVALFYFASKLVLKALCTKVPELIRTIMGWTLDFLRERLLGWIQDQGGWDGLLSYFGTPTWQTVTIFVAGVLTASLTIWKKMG

Test [1] deals with T1, PGAM5L (the long form of PGAM5) (human (endogenous in HCT116, SW480, Hela, A549)) (UniProt Q96HS1).
T1 sequence: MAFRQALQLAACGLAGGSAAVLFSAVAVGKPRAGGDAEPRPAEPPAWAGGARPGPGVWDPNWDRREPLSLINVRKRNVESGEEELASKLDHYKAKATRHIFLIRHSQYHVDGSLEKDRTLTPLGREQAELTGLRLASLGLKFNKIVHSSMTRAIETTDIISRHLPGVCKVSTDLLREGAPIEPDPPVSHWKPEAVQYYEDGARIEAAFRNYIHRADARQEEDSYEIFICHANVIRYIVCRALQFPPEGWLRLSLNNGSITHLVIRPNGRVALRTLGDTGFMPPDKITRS
In words: co-IP; SW480, Hela and A549 cell lines (Supplementary Figure S1E); the precipitating antibody and the treatment are not told in the text shown.

Test [2] concerns the target T1, PGAM5L (the long form of PGAM5) (human (endogenous in HCT116, SW480, Hela, A549)). In words: co-IP; IP with anti-PGAM5 antibody from extracts of HCT116 Bax+/+ xenograft tumor tissue of mice treated with arenobufagin or cisplatin; Triton X-100 extraction buffer; blots for Drp1 and Bax.
Test [3] has the same target. Kind of test: co-IP; IP with anti-PGAM5 antibody from extracts of HCT116 WT cells; 1 μM arenobufagin 12 h (also with 20 μM iMAC2) or staurosporine; blots for Drp1 and Bax.
Test [4] has the same target. In words: co-IP; IP with anti-PGAM5 antibody from extracts of HCT116 Bax−/− cells transfected with HA-Bax; 1 μM arenobufagin 12 h; blots with Drp1 and Bax antibody.

Results are given in words; binding and its absence hold for the method and conditions named. In cells and extracts the contact can be indirect. Some entries that bind do so weakly or less than the wild type.

As to Bax (from UniProt Q07812 1-192), the binding entry in test [1], in test [2] and in test [3] was “binds” throughout.

As to HA-Bax (from UniProt Q07812 1-192), in test [4], the binding result was “binds”.
